Experimental data taken from patent publication US7880021B2, “Compounds and kits for the detection and the quantification of cell apoptosis” (Centre National de la Recherche Scientifique (CNRS), priority 2005, dated 2011).

Experiment: Fluorescence response to surface charge in large unilamellar vesicles
Settings: LUV, excitation 400 nm, probe 0.1 μM

1-dodecanaminium, N-[[2-[4-Diethylaminophenyl]-3-hydroxychromon-6-yl]-methyl]-N-methyl-N-(3-sulfopropyl)-, inner salt [F2N12S]
relative intensity of the short-wavelength band, anionic vesicles (PG and PS) versus neutral PC vesicles: higher relative intensity of the short-wavelength band
relative intensity of the short-wavelength band, neutral PE vesicles: significantly smaller increase
